Article PMC3342935

B1: ASH-2 (protein, UniProt G5EFZ3 1-570)
chain: MRSSKGGRGRQAAPKTAPTTVCYCDGKRELGSVEVVCSTCLKWFHGRCLKEFHELNSNGVPFMICYTFTCKQCRPTAEDWKAKKADLVQMCVTVLATLSAERLKADGKLSAEHVPEDFTYLSLKDEIVPYMNENWYMLTAIKQKKEWHQNLAPTLLKEKNIFVQHNDDDDLFALAEKNLSLLGPLHEAVKLIGKRPIERENREPRHIELPPIEGPKTRGASKRRHAEAPVTGKKQKLAADYSSTAAPNGVQIDIPFSKDNYRYYLTEVDPNVPEDPAWNQNQSSAYVIPSFHYRELLNPTVNVSSNDRAFQLSINGNSITGFEGYSMARASHGVSKGTWYFEVNFDDQPDDSHIRIGWSQSYASLQACVGYNKFSYGWRSKHGTKFHEAKGKKYHFGGFKQGDVLGCLIHLPVDKKLQIPANLPSEKYLPVSHKGFNLISFKANYFFEVQEESADIAKTLVEMPGSYIEFFHNGKSCGKAYENIYAGAYYPSISIFKSATATMNLGPKFRNLPRGATGIHARADEQQHEQTLSDMLYLVSKEVNLDHPPRVKREDDDDVKDIKKEIKQEI
B2: RBBP-5 (protein, UniProt Q09309 1-454)
chain: MVEILDRTYGAQFPEELECHLDLQNASANCCKFNRWGSIVAVGCTDGRVLIYDFMTRNIARTFSAHCLPVSCLSWSRDGRKLLTSSADNSIAMFDVLAGTLLHRIRFNSMVTFAMFHPRNDNKAIVLQVNKQPTVEQFSPRIQTVLANDTPGSSDESASCVSYDRKGKYIIAGTGKGKLLIYNAETLKCVAWCKQNTVQQIRQIIVPMKSRFIITNTQDRVIRTYELEDLLHQRGQMVEAKYKVLDMVNKAAWKNVCTDSDGLYVCGASTKAHSLYIWESNTGSLIKILHGNKGEALLDVQWHPTRPIILSIAQGTVSMWTQAHVENWSAFAPEFQELEENEKYIEKENEFDMEDEDADEDMTSKSQDAEDDIIDVVNVRPEDYLASSDEEDCNIMKPARNLESGPLWYIPVPLDIENADNDQRLPDDIRNLDNLLNPAWVASAKGYELSPKSK
B3: MIX-1 (protein, UniProt Q09591 1-1244)
chain: MHIKSIHLDGFKSYQKHTDILDFSPTFNAITGYNGSGKSNILDSICFIMGINKLDNIRAKSMHELISHGGTKAIVQVRFDNTDKRCSPFGMEHLDEIVVQRIITAQATGKGCATSYTLNGHAATNGKMQDFFRGVGLNVNNPHFLIMQGRITTVLNMKPEEILGMVEEAAGTKMYDQKKKDAEKTMFLKDAKLKEVDRIFQSSIDPRMVKFREDRKNMVEVTRLKKLKENFSRKYEAFQYFQTCEAVKKSAKEIEDAKKGIEDLGEKFNQLDLDLKNKEDEKKKMEESRDDQHEEAALSAAHLSKQSIMLQKETVKNQLVETINKLKKEGEQINKSLSKDREVLDAKRKEHEDSKAANSKDIQSQSDDEALVTKYRNDLESLTRGTIANDKGEHVSIESEIQSCKSTASQMSSGITAAKKRGERLHNQIKHLEGEKATLSARSKSDIGSADNYQKEVDEINKQLQLLGFNIDADTEKREHAAKLHESITKLKDMDTRLLNSYKDGRYALNYQRPPLHIDKFDEKRDVFGYVAHLIKMKPGCEQFAVAADIALGGVLGNVVVSTQDIARILIDGKAFTSRKTMIPVSENARNASSYNTLPDVKLRRAKEIAEKYNDTVTKMIDLIEYPDFISNTILNAVGQILVVDSLDVAREIAYDEVAKTRMITRRGDDVRTNGIMTGGYNDPGNKPALIALEPMYARRPQIEAQQRELDALNRELQLTEASSQKCRDLNNQLATAMRKLAQVKTNINNSEFGIVVRDLKVHSEEYEKNQAEIEATVKTLKDVEDKIKTLESMKNKDKNSQEKRKKELTALLQKAEQTVAQNKNRGEKARREVMLLQATVEEMEKTIKKDEGIWEQKKKECDELEEKLPNAIAALKDAELEQKAAQAKLNDLKNNQRQISTRLGKIAKECDALIREKAKTKSKREEKEKELTSLQQSEASNRKEARSKLKKFEWLSDEEAHFNKKGGLYDFEGYTVSKGKDEIKELTDKIETLERSCCIQNVSNLDTCEAKVLDIKNKRERITEDFNMLKKTIATLDKKKVDELIRAHESVNKDFGQIFNCLLPDAHASLVPPEGKTVCEGLEVKVSFGGVVKDSLHELSGGQRSLVALSLILAMLKFKPAPLYILDEVDAALDLSHTANIGMMIKTHFHHNQFIIVSLKQGMFSNADVLFQTRFADGHSTCTRLNGGDIAVLCQDKVLQAQALELTDAGKAKKDAAAKKGAQKNDKEPPKKKPIVVDDDDFE

Target: UTX-1::GFP (C. elegans)
Test: affinity purification with mass spectrometry; GFP-Trap beads on total protein extract (about 200 mg) of mixed eggs and adults of utx-1(tm3118) rescued with UTX-1::GFP; IP buffer 300 mM KCl, 0.1% Igepal, 1 mM EDTA, 1 mM MgCl2, 10% glycerol, 50 mM Tris HCl pH 7.4; elution with 0.1 M glycine pH 2.5; LC-MS/MS of 21 gel slices; N2 lysate as control

binding, binds:
B1
B2
B3

Results are given in words; binding and its absence hold for the method and conditions named. Binding seen in cells or lysates may run through a third protein. Here binding means that the protein was enriched with, or labelled near, the bait; the list need not be complete.
